Record: PubChem BioAssay AID1508588 (Peter MacCallum Cancer Centre, 2020)
This is a random part of about 18,000 reagents. 790 of all reagents (4.4%) count as active. 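Calls rest on a combination of fold-change classes in drug and vehicle arms, not all shown here.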 Entries without a mark were called inactive.

Aim: 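Genome-wide search for knock-downs that heighten vemurafenib action in melanoma cells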 (primary screen)
Cell system: human WM266.4 melanoma cells (BRAF V600 mutant)
Knock-down reagent: siRNA pool against human genes, 40 nM
Duration: 96 h from transfection to read-out
Conditions: vemurafenib 300 nM (about IC25), added 48 h after transfection, for 48 h; comparison arm got DMSO vehicle only
Measured: 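Ratios to non-targeting siRNA for cell gain, counted as DAPI nuclei after minus before drug and averaged over two replicates, and for absorbance-read medium lactate per cell; both binned into fold-change classes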
Scale: cell gain with vemurafenib: higher = more cell gain than with non-targeting siRNA; lactate per cell with vemurafenib: higher = more lactate made per cell
Call rule: 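a knock-down counts as enhancing when its fold-change classes with vehicle and with vemurafenib, taken together, show a stronger drug effect on cell gain or lactate per cell; exact class pairs not stated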
Calls: active = enhances vemurafenib effect; inactive = no enhancement seen

gene,cell gain with vemurafenib,lactate per cell with vemurafenib
ELF3 (E74 like ETS transcription factor 3),0.51,0.44
ANKRD2 (ankyrin repeat domain 2),0.15,0.92
JPH2 (junctophilin 2),0.01,1.31
BHMT2 (betaine--homocysteine S-methyltransferase 2),0.15,1.88
OR52K1 (olfactory receptor family 52 subfamily K member 1),0.31,0.73
BAG6 (BAG cochaperone 6),0.25,0.94
QSER1 (glutamine and serine rich 1),0.29,1.44
STRADB (STE20 related adaptor beta),0.85,0.44
CPS1 (carbamoyl-phosphate synthase 1),0.41,1.66
TVP23B (trans-golgi network vesicle protein 23 homolog B),1.62,0.76
AP1G2 (adaptor related protein complex 1 subunit gamma 2),0.79,0.46
RGS10 (regulator of G protein signaling 10),0.58,0.98
TCEAL7 (transcription elongation factor A like 7),0.82,0.61
PNLIPRP1 (pancreatic lipase related protein 1),0.81,0.98
HOOK2 (hook microtubule tethering protein 2),0.29,1.55
RPS14 (ribosomal protein S14),-0.09,1.21
PDLIM7 (PDZ and LIM domain 7),0.58,0.75
OR2D3 (olfactory receptor family 2 subfamily D member 3),1.06,0.53
IGFL3 (IGF like family member 3),-0.11,1.17
PGAM5,0.6,0.99
PKD1L1-AS1 (PKD1L1 antisense RNA 1),0.58,0.98
ELP3 (elongator acetyltransferase complex subunit 3),0.75,0.92
EAF1 (ELL associated factor 1),0.26,1.01
ARL13B (ARF like GTPase 13B),0.75,0.63
ADAMTS4 (ADAM metallopeptidase with thrombospondin type 1 motif 4),0.59,1.01
FAM117B (family with sequence similarity 117 member B),0.5,1.04
OR6C4 (olfactory receptor family 6 subfamily C member 4),0.82,1.04
COPS6 (COP9 signalosome subunit 6),0.52,2.12
MAP3K10 (mitogen-activated protein kinase kinase kinase 10),0.85,0.44
TTC21A (tetratricopeptide repeat domain 21A),0.42,2.12
NHLRC1 (NHL repeat containing E3 ubiquitin protein ligase 1),0.18,0.88
DCAF16 (DDB1 and CUL4 associated factor 16),0.51,0.74
"B3GAT1 (beta-1,3-glucuronyltransferase 1)",0.47,1.08
USP17L2 (ubiquitin specific peptidase 17 like family member 2),0.65,0.98
HOXD4 (homeobox D4),1.17,0.98
"RAB28 (RAB28, member RAS oncogene family)",0.65,0.66
DPEP2 (dipeptidase 2),0.66,0.97
ZNF322 (zinc finger protein 322),0.19,1.2
MIEF2 (mitochondrial elongation factor 2),0.21,1.69
PTPRG (protein tyrosine phosphatase receptor type G),0.73,0.87
NUDT14 (nudix hydrolase 14),0.55,0.82
USP46 (ubiquitin specific peptidase 46),1.26,0.54
LRP8 (LDL receptor related protein 8),0.76,0.56
EMC1 (ER membrane protein complex subunit 1),0.8,1.02
PRM2 (protamine 2),0.69,0.78
GPAT4 (glycerol-3-phosphate acyltransferase 4),0.36,1.14
LTB (lymphotoxin beta),0.75,1.14
ZFAND3 (zinc finger AN1-type containing 3),0.13,0.84
HIRA (histone cell cycle regulator),0.44,0.64
TNFSF9 (TNF superfamily member 9),1.04,0.76
MGAT5B,0.47,0.91
BTK (Bruton tyrosine kinase),0.31 (active),0.39
UBXN2B (UBX domain protein 2B),1.07,0.84
TPRG1 (tumor protein p63 regulated 1),0.51,1.18
PCSK9 (proprotein convertase subtilisin/kexin type 9),0.86,1.26
THRA (thyroid hormone receptor alpha),1.02,0.6
RIC1 (RIC1 partner of RAB6A GEF complex),0.88,0.88
OLAH (oleoyl-ACP hydrolase),0.53,1.6
GOLPH3 (golgi phosphoprotein 3),0.38,0.66
MGAT2,0.31,0.84
IL3RA (interleukin 3 receptor subunit alpha),0.64,0.97
MT1E (metallothionein 1E),0.67,1.12
CBLIF (cobalamin binding intrinsic factor),0.49,1.13
TPST1 (tyrosylprotein sulfotransferase 1),0.6,0.69
ZMYM2 (zinc finger MYM-type containing 2),0.79,1.03
POMZP3 (POM121 and ZP3 fusion),1.18,0.62
GGTLC2 (gamma-glutamyltransferase light chain 2),0.04,3
FLOT2 (flotillin 2),0.5,0.92
"ST8SIA6 (ST8 alpha-N-acetyl-neuraminide alpha-2,8-sialyltransferase 6)",0.5,0.88
CEBPB (CCAAT enhancer binding protein beta),0.88,0.48
EIPR1 (EARP complex and GARP complex interacting protein 1),0.85,0.54
TAB3 (TGF-beta activated kinase 1 (MAP3K7) binding protein 3),1.18,0.87
TSEN15 (tRNA splicing endonuclease subunit 15),0.33,2.27
FOXP4 (forkhead box P4),0.44,1.49
PKLR (pyruvate kinase L/R),0.94,1.09
ATP11C (ATPase phospholipid transporting 11C (ATP11C blood group)),0.35,0.87
SH3PXD2A (SH3 and PX domains 2A),0.1,1.54
MGAT3,0.54,0.5
FAM24B (family with sequence similarity 24 member B),0.54,1.54
PPEF2 (protein phosphatase with EF-hand domain 2),0.57,2.17
P2RX5 (purinergic receptor P2X 5),0.96,1.33
NCDN (neurochondrin),0.5,0.96
IQSEC1 (IQ motif and Sec7 domain ArfGEF 1),0.36,1.7
CXCL12 (C-X-C motif chemokine ligand 12),0.5,0.62

Part of the list above, limited to “cell gain with vemurafenib”:
PGAM5	0.6
PKD1L1-AS1 (PKD1L1 antisense RNA 1)	0.58
ELP3 (elongator acetyltransferase complex subunit 3)	0.75
EAF1 (ELL associated factor 1)	0.26
ARL13B (ARF like GTPase 13B)	0.75
ADAMTS4 (ADAM metallopeptidase with thrombospondin type 1 motif 4)	0.59
FAM117B (family with sequence similarity 117 member B)	0.5
OR6C4 (olfactory receptor family 6 subfamily C member 4)	0.82
COPS6 (COP9 signalosome subunit 6)	0.52
MAP3K10 (mitogen-activated protein kinase kinase kinase 10)	0.85
TTC21A (tetratricopeptide repeat domain 21A)	0.42
NHLRC1 (NHL repeat containing E3 ubiquitin protein ligase 1)	0.18
DCAF16 (DDB1 and CUL4 associated factor 16)	0.51
B3GAT1 (beta-1,3-glucuronyltransferase 1)	0.47
